Test results published in PubChem BioAssay AID624291 (National Center for Advancing Translational Sciences (NCATS), 2012).
About 220 (0.063%) of roughly 350,000 compounds were called active. Inconclusive results, whose numbers are uncertain, are shown with a selection of clear calls. The call rests on the fitted dose curve; in most records, active means well fitted activation curve with a large enough effect; inconclusive means small, poorly fitted or top-dose-only effect; inactive means no such curve, though single readings can be large or run the other way. Potencies of inconclusive entries are doubtful fits and often do not repeat.

assay: qHTS for Activators of Integrin-Mediated Alleviation for Muscular Dystrophy; conditions: alpha7betagal myoblasts, beta-gal FDG fluorescence, 48 h; activation: at 38.3 µM (top of the series); further: nearly all actives have a fitted effect of over 60% in size;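 on activation: 100% = response of the positive control SU9516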
How it was run: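 Alpha7betagal+/- myoblasts (passage 13) were plated 16-24 hr, then exposed to compounds (1:260 dilution of DMSO stock) for 48 hours at 37C. After MPER lysis, β-galactosidase reporter activity was read as FDG fluorescence (ex 480/em 540) after 30 minutes.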
Potency means the concentration at half of the fitted maximal effect.

Structure (SMILES) | Potency | activation
Cc1cc(C)n(C(=O)C(C(=O)c2ccccc2)C(C)C)n1 (stereo unspecified) | inconclusive: 22.4 µM [activator, single point] | –
CCOc1cc(-c2sc(Nc3ccccc3)n[n+]2-c2ccc(F)cc2)ccc1OC | – | inactive: 6.43%
COc1ccc2cc3cc(C(=O)NC4CC4)sc3nc2c1 | – | inactive: -1.2%
COc1ccc(C)c2sc(N(CCCN(C)C)C(=O)c3ccc(S(=O)(=O)N(C)C)cc3)nc12 | inconclusive: 2.82 µM [activator, single point] | –
CC(=O)N(\C=C/C=C/C=C1\Sc2ccccc2C1=O)c1ccccc1 | – | inactive: -71.6%
O=C(Nc1ccccc1)C(Cl)C(=O)c1ccccc1 (stereo unspecified) | – | inactive: 0%
Cc1ccc(/C=N/NC(=O)c2nn(C)cc2Cl)cc1 | – | inactive: 15.5%
COc1ccnc(Oc2ccc(F)cc2)c1C#N | inconclusive: 3.55 µM [activator, partial curve, poor fit] | –
Cc1noc(/C=C/N(C)C)c1S(=O)(=O)N1CCCC(C(=O)NCc2ccccc2Cl)C1 (stereo unspecified) | inconclusive: 2.24 µM [activator, full curve] | –
Cc1cc(SC(C)C(=O)O)nc2ccccc12 (stereo unspecified) | inconclusive: 5.01 µM [activator, partial curve, poor fit] | –
Cc1ccnc(NS(=O)(=O)c2ccc(NC(=O)c3ccc4c(c3)OCCO4)cc2)n1 | inconclusive: 5.01 µM [activator, single point] | –
Cc1nc(C)c(-c2csc(Nc3ccc(N)cc3)n2)s1 | – | inactive: -11%
O=C(c1ccc(F)cc1F)N1CCCN(c2nc(-c3ccccc3)ns2)CC1 | inconclusive: 22.4 µM [activator, single point] | –
CC1CCCCC1NC(=O)C1CCC(CNS(=O)(=O)c2ccc(F)cc2)CC1 (stereo unspecified) | inconclusive: 22.4 µM [activator, single point] | –
CNS(=O)(=O)c1ccc(NC(=S)Nc2ccc3c(c2)OCO3)cc1 | – | inactive: -2.45%
O=C(Nc1ccc(F)cc1Cl)C1=COCCO1 | inconclusive: 11.2 µM [activator, partial curve, poor fit] | –
COC(=O)c1c(C)nn(-c2ccc(OC(F)(F)F)cc2)c1-c1snnc1C | inconclusive: 28.2 µM [activator, single point] | –
C=CCn1c2ccccc2c(=O)c2cc(C#Cc3ccccn3)ccc21 | – | inactive: -7.61%
O=C(N/N=C\c1ccccc1OCc1ccccc1)c1ccco1 | inconclusive: 2.24 µM [activator, full curve, poor fit] | –
COc1ccc2nc3c(c(-c4ccccc4)c2c1)CCC3 | – | inactive: 0.299%
O=C(Nc1ccccc1C(F)(F)F)C1CCN(C(=O)Cc2ccccc2)CC1 | inconclusive: 2.82 µM [activator, single point] | –
Cn1nnnc1SCC(=O)N(C1CCCCC1)C1CCCCC1 | inconclusive: 12.6 µM [activator, partial curve, poor fit] | –
CC1(C)C=C(c2ccc(C(=O)O)s2)CC(C)(C)N1 | inconclusive: 5.01 µM [activator, single point] | –
O=C(Nc1ccc(CN2CCOCC2)cc1)c1ccc(Br)cc1 | – | inactive: -23%

Structure (SMILES) | Potency | activation
CCCCN(CCCC)S(=O)(=O)c1ccc(C(=O)Nc2nnc(CSC)o2)cc1 | – | inactive: -51%
COc1ccccc1NC(=S)NC(=O)/C=C/c1ccco1 | – | inactive: -40%
O=c1c(Cc2ccc(Cl)cc2Cl)c(O)ccn1CC(F)(F)F | inconclusive: 3.16 µM [activator, single point] | –
CN(CC(=O)Nc1cccc(F)c1)CC(=O)Nc1cc(S(=O)(=O)N2CCOCC2)ccc1Cl | inconclusive: 5.01 µM [activator, single point] | –
O=C(CCc1ccccc1)NCC(=O)N/N=C/c1ccc(O)cc1O | inconclusive: 3.16 µM [activator, single point] | –
c1ccc2c3c(c(CN4CCCC4)cc2c1)COC3 | inconclusive: 3.98 µM [activator, single point] | –
O=C(O)CCCCCn1c(SCC(=O)Nc2ccc(F)cc2)nc2ccsc2c1=O | inconclusive: 15.8 µM [activator, single point] | –
CC(C)C(OC(=O)c1cccs1)C(=O)NCc1ccccc1 (stereo unspecified) | inconclusive: 28.2 µM [activator, single point] | –
CCOC(=O)CSc1nc2ccccc2c(=O)n1NC(=O)c1ccccc1 | – | inactive: 15.5%
Cc1cc(C(F)(F)F)cc(NNC(=O)NC(=O)c2c(F)cccc2Cl)n1 | inconclusive: 10 µM [activator, single point] | –
Cc1ccc(N2CCN(C(=O)c3nn(C)c4c3CS(=O)(=O)c3ccccc3-4)CC2)c(C)c1 | – | inactive: -18%
Oc1ccccc1CNCCCN1CCOCC1 | inconclusive: 3.16 µM [activator, single point] | –
N#Cc1nc(-c2ccc([N+](=O)[O-])cc2)oc1N1CCCCC1 | inconclusive: 2.82 µM [activator, single point] | –
Cc1cc(C)nc(SCC(=O)N/N=C/c2cccs2)n1 | inconclusive: 0.447 µM [activator, full curve, poor fit] | –
Cc1nccn1CCCNC(=O)c1nc(Cn2cc([N+](=O)[O-])cn2)no1 | inconclusive: 2.82 µM [activator, single point] | –
O=C(NC1CCCCCCC1)c1ccc2c(c1)N(Cc1ccc(F)cc1)C(=O)CS2=O (stereo unspecified) | inconclusive: 2.51 µM [activator, full curve, poor fit] | –
Cc1ccc(NC(=O)N2CCCCCC2)cc1C | inconclusive: 28.2 µM [activator, single point] | –
O=C(/C=C/c1ccco1)NC(=S)Nc1ccc(C(=O)O)cc1 | inconclusive: 5.01 µM [activator, single point] | –
COc1ccc(CC(=O)Nc2c(C(=O)N3CCN(c4ccccc4)CC3)oc3ccccc23)cc1OC | inconclusive: 10 µM [activator, single point] | –
O=C(O)/C(=C\c1cccs1)c1ccccc1 | inconclusive: 8.91 µM [activator, single point] | –
CCOc1ccccc1OCCC(=O)OCC(=O)Nc1c(C)cc(C)cc1C | – | inactive: -18.8%
O=C(Cn1cnc2c(nnn2Cc2ccccc2)c1=O)NCc1ccccc1Cl | inconclusive: 1.58 µM [activator, partial curve, poor fit] | –
O=C(NCCN1CCN(Cc2ccccc2)CC1)C1CC(=O)N(C2CCCC2)C1 (stereo unspecified) | – | inactive: -17.3%
O=C(Cn1c(C(=O)NCCCN2CCOCC2)cc2sccc21)c1ccccc1 | – | inactive: 17.6%

Structure (SMILES) | Potency | activation
COc1ccc(NC(=S)NNC(=O)c2ccccc2OC(F)F)cc1 | – | inactive: 5.85%
O=C(COC(=O)c1ccco1)NCc1ccccc1Cl | inconclusive: 3.98 µM [activator, single point] | –
CCCCn1c2nc3ccccc3nc2c2c(=O)n(C(C)CC)cnc21 (stereo unspecified) | inconclusive: 2.82 µM [activator, single point] | –
CC(C)n1nc(C(=O)Nc2nc3ccccc3[nH]2)c2ccccc2c1=O | inconclusive: 11.2 µM [activator, partial curve, poor fit] | –
CCOC(=O)c1sc(NC(=S)NC(=O)C2CCCC2)cc1C | – | inactive: -27.2%
Cc1ccc(CNC(=O)CS(=O)(=O)c2ccccc2)cc1 | inconclusive: 10 µM [activator, single point] | –
C[C@]12c3[nH]c4ccccc4c3CCN1C(=O)C(CC(=O)NCc1ccco1)C[C@@H]2C(=O)N1CCCCC1 (stereo partly specified) | – | inactive: -26.5%
CC(C)NC(=O)C1(c2ccccc2)CCOCC1 | inconclusive: 31.6 µM [activator, single point] | –
COc1ccc(C(C(=O)NC2CCCCC2)N(Cc2ccco2)C(=O)c2snc(C(N)=O)c2N)cc1 (stereo unspecified) | inconclusive: 14.1 µM [activator, single point] | –
CCN(CC)C(=O)C(C)N1c2cccc3cccc(c23)S1(=O)=O (stereo unspecified) | – | inactive: 1.71%
CNc1cc(F)nc(F)n1 | inconclusive: 2 µM [activator, partial curve, poor fit] | –
Cc1ccc(S(=O)(=O)Nc2cc3c4c(c2)CCN4C(=O)CC3)cc1 | inconclusive: 28.2 µM [activator, single point] | –
CCOc1ccc(NC(=O)C2CCC(CNc3c(N4CCCCC4)c(=O)c3=O)CC2)cc1 (stereo unspecified) | inconclusive: 2.82 µM [activator, single point] | –
CCc1c(C2(O)CCCCC2)[nH]c2ccc(C(F)(F)F)cc12 | – | inactive: -2.55%
COc1cccc(/C=C/C(=O)OCC(=O)Nc2ccc(N3CCOCC3)cc2)c1OC | inconclusive: 11.2 µM [activator, single point] | –
CCN1CCN(CCNC(=O)Cn2c(=O)c3cccn3c3ccc(F)cc32)CC1 | inconclusive: 2.51 µM [activator, partial curve, poor fit] | –
CN(C)CCO/N=C(\c1ccc(Br)cc1)c1cccnc1 | inconclusive: 10 µM [activator, partial curve, poor fit] | –
COc1ccc(C(=O)NNC(=O)c2ccccc2[N+](=O)[O-])cc1[N+](=O)[O-] | inconclusive: 5.01 µM [activator, single point] | –
Cc1nnc(-c2ccccc2)o1 | inconclusive: 5.01 µM [activator, single point] | –
COc1ccc(CCn2c(C(C)C)nc3oc4ccccc4c(=O)c3c2=O)cc1 | inconclusive: 28.2 µM [activator, single point] | –
CCCn1nnc2ccccc2c1=O | inconclusive: 5.01 µM [activator, single point] | –
CSc1ccc(C#N)cc1NC(=O)c1ccccc1C | inconclusive: 5.01 µM [activator, single point] | –
COc1ncnc2c1ncn2CCCN1CCN(c2ncccn2)CC1 | – | inactive: 18%

Five entries drawn at random from those above, as already listed:
Structure (SMILES) | Potency | activation
CCN1CCN(CCNC(=O)Cn2c(=O)c3cccn3c3ccc(F)cc32)CC1 | inconclusive: 2.51 µM [activator, partial curve, poor fit] | –
CCN(CC)C(=O)C(C)N1c2cccc3cccc(c23)S1(=O)=O (stereo unspecified) | – | inactive: 1.71%
COc1ccc(C(C(=O)NC2CCCCC2)N(Cc2ccco2)C(=O)c2snc(C(N)=O)c2N)cc1 (stereo unspecified) | inconclusive: 14.1 µM [activator, single point] | –
COc1ccc(C(=O)NNC(=O)c2ccccc2[N+](=O)[O-])cc1[N+](=O)[O-] | inconclusive: 5.01 µM [activator, single point] | –
CSc1ccc(C#N)cc1NC(=O)c1ccccc1C | inconclusive: 5.01 µM [activator, single point] | –
